Test results as given in article PMC4650699.
Results are given in words; binding and its absence hold for the method and conditions named. Each block holds one binder with its values, some of them ahead of it.

Tests used:
Assay in all cases: SEC + other: dynamic light scattering; elution profiles on size-exclusion column (Superdex 75, 20 mM Tris-HCl pH 8.0, 300 mM NaCl, 1 mM DTT, 1 mM PMSF); DLS at 40 μM protein in a DynaPro plate reader; both purified
[1] = target: EcEndoV-FL-Y73F (E. coli) (UniProt P68739)
[2] = target: EcEndoV-FL-S144A (E. coli) (UniProt P68739)
[3] = target: EcEndoV double mutant E140R/S144A (E. coli) (UniProt P68739)
[4] = target: EcEndoV-FL-D183R (E. coli) (UniProt P68739)

B3: EcEndoV double mutant E140R/S144A (enzyme, UniProt P68739 1-223)
chain: MDLASLRAQQIELASSVIREDRLDKDPPDLIAGADVGFEQGGEVTRAAMVLLKYPSLELVEYKVARIATTMPYIPGFLSFREYPALLAAWEMLSQKPDLVFVDGHGISHPRRLGVASHFGLLVDVPTIGVAKKRLCGKFRPLSAEPGALAPLMDKGEQLAWVWRSKARCNPLFIATGHRVSVDSALAWVQRCMKGYRLPEPTRWADAVASERPAFVRYTANQP
- binding [3]: no binding (tested: 40 μM (DLS))

B4: EcEndoV-FL-D183R (enzyme, UniProt P68739 1-223)
chain: MDLASLRAQQIELASSVIREDRLDKDPPDLIAGADVGFEQGGEVTRAAMVLLKYPSLELVEYKVARIATTMPYIPGFLSFREYPALLAAWEMLSQKPDLVFVDGHGISHPRRLGVASHFGLLVDVPTIGVAKKRLCGKFEPLSSEPGALAPLMDKGEQLAWVWRSKARCNPLFIATGHRVSVRSALAWVQRCMKGYRLPEPTRWADAVASERPAFVRYTANQP
- binding [4]: no binding (tested: 40 μM (DLS))

Next, values leading:

- binding [1]: no binding (tested: 40 μM (DLS))
B1: EcEndoV-FL-Y73F (enzyme, UniProt P68739 1-223)
chain: MDLASLRAQQIELASSVIREDRLDKDPPDLIAGADVGFEQGGEVTRAAMVLLKYPSLELVEYKVARIATTMPFIPGFLSFREYPALLAAWEMLSQKPDLVFVDGHGISHPRRLGVASHFGLLVDVPTIGVAKKRLCGKFEPLSSEPGALAPLMDKGEQLAWVWRSKARCNPLFIATGHRVSVDSALAWVQRCMKGYRLPEPTRWADAVASERPAFVRYTANQP

- binding [2]: no binding (tested: 40 μM (DLS))
B2: EcEndoV-FL-S144A (enzyme, UniProt P68739 1-223)
chain: MDLASLRAQQIELASSVIREDRLDKDPPDLIAGADVGFEQGGEVTRAAMVLLKYPSLELVEYKVARIATTMPYIPGFLSFREYPALLAAWEMLSQKPDLVFVDGHGISHPRRLGVASHFGLLVDVPTIGVAKKRLCGKFEPLSAEPGALAPLMDKGEQLAWVWRSKARCNPLFIATGHRVSVDSALAWVQRCMKGYRLPEPTRWADAVASERPAFVRYTANQP
